PubChem BioAssay AID1259282 | Sanger Institute | 2017

- Screen: 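siRNA screen across the kinome seeking drug combinations lethal to colorectal cancer cells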 (primary screen)
- System: DIFI human colorectal cancer cell line
- Knock-down reagent: siRNA pool against human genes
- Conditions: anchor drug at a mild dose (BYL719 1 µM, cetuximab 5 µg/ml, trametinib 10 nM) or DMSO vehicle; exposure time not given
- Read-out: 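Robust z-score and replicate-mean viability versus non-targeting pool without drug, plus a synergy score for each low-dose anchor drug (BYL719, cetuximab, trametinib)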
- Direction: robust z-score, knock-down alone: higher = more viable cells than typical knock-down
- Hit rule: 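a knock-down is called essential if its DMSO robust z-score is under -3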
- Meaning of the calls: active = essential (knock-down alone, z below -3); inactive = not essential
This is a random part of 794 deposited reagents. 11 of all reagents (1.4%) were called active. 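Calls flag knock-downs that lower viability without drug; drug synergy appears only in the synergy scores; exposure time not stated.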 Not all columns of the deposit are shown. No sequences are given here. The record does not give: the amount of reagent, the time to read-out.

| gene | robust z-score, knock-down alone | Outcome |
| --- | --- | --- |
| ATP23 (GeneID 91419) | 0.0256 | inactive |
| DUSP21 (GeneID 63904) | 0.715 | inactive |
| BRD2 (GeneID 6046) | 0.715 | inactive |
| ZC3H11A (GeneID 9877) | 0.715 | inactive |
| HK3 (GeneID 3101) | 0.715 | inactive |
| PRKCA (GeneID 5578) | -0.0557 | inactive |
| DAPK3 (GeneID 1613) | -1.68 | inactive |
| NUP98 (GeneID 4928) | -0.0337 | inactive |
| KHK (GeneID 3795) | 0.34 | inactive |
| JAK1 (GeneID 3716) | 0.715 | inactive |

The list goes on (2 carried over from the part before).
| gene | robust z-score, knock-down alone | Outcome |
| --- | --- | --- |
| KHK (GeneID 3795) | 0.34 | inactive |
| JAK1 (GeneID 3716) | 0.715 | inactive |
| MAST2 (GeneID 23139) | 0.715 | inactive |
| CDK15 (GeneID 65061) | 0.404 | inactive |
| IPMK (GeneID 253430) | 0.715 | inactive |
| STK25 (GeneID 10494) | 0.715 | inactive |
| TAOK2 (GeneID 9344) | 0.715 | inactive |
| DCLK3 (GeneID 85443) | 0.715 | inactive |
| PTPRU (GeneID 10076) | 0.715 | inactive |
| TESK2 (GeneID 10420) | 0.715 | inactive |
| FGFR4 (GeneID 2264) | 0.715 | inactive |
| PIK3R5 (GeneID 23533) | 0.509 | inactive |
